Results: patent publication US5510356A, “Bisquinolines and processes for their production and use to treat malaria” (priority 1991, dated 1996)
Some results were stated once for a whole list of compounds, not compound by compound.

Key:
P. falciparum = assay: In vitro activity against P. falciparum (both clones, D-6 and W-2); type: cell-based, Plasmodium falciparum; details: general statement, refers to Table I
Protocol: In vitro activity against P. falciparum was determined using a modification of the semiautomated microdilution technique of Desjardins et al. (1979) and Milhous et al. (1985). Two P. falciparum malaria parasite clones, designated as Sierra Leone (D-6) and Indochina (W-2), are used in susceptibility testing. The former is resistant to mefloquine, and the latter to CQ, pyrimethamine, sulfadoxine, and quinine. Test compounds are dissolved in dimethylsulfoxide, and solutions serially diluted with culture media. Erythrocytes with 0.25 to 0.5% parasitemia are added to each well of a 96-well microdilution plate to give a final hematocrit of 1.5%. […] Results are reported as […] (ng/mL) values. For a complete description of this assay, see Milhous et al. (1985) and Lin et al. (1987).

[1] = test system: P. berghei (strain KBG 173); assay: In vivo activity against P. berghei in mice, single subcutaneous dose 3 days after infection; parameters: species or system Plasmodium berghei; mice
Protocol: In vivo activity against P. berghei was obtained against a drug-sensitive strain of P. berghei (strain KBG 173) (Osdene et al., 1967). Each test compound is administered subcutaneous to five male mice per dilution in a single subcutaneous dose 3 days after infection. Results are expressed in T-C values which indicate the mean survival time of the treated mice beyond that of the control animals; untreated mice survive on average 6.2 days. Compounds are classified as active (A) when the mean survival time of the treated mice is twice that of the controls (>6.2 days), and curative (C) when one or more test animals live 60 days post-infection. Deaths from 0-2 days post-treatment are attributed to toxicity (T).

| Structure (SMILES) | antimalarial activity (in words) (P. falciparum) | antimalarial activity (in words) (P. falciparum; listed as compound 7) | in vivo activity against P. berghei (in words) [1] |
| --- | --- | --- | --- |
| Clc1ccc2c(NCCCCCNc3ccnc4cc(Cl)ccc34)ccnc2c1 [Compound 6, N^1, N^5 -Bis(7-chloroquinolin-4-yl)pentane-1,5-diamine] | active |  |  |
| CC(CCCNc1ccnc2cc(Cl)ccc12)CNc1ccnc2cc(Cl)ccc12 (stereo not drawn) [Compound 7, N^1, N^5 -Bis(7-chloroquinolin-4-yl)-2-methylpentane-1,5-diamine] |  | active |  |
| Clc1ccc2c(NCCCCCCNc3ccnc4cc(Cl)ccc34)ccnc2c1 [Compound 8, N^1, N^6 -Bis(7-chloroquinolin-4-yl)hexane-1,6-diamine] | active |  |  |
| Clc1ccc2c(NCCCCCCCNc3ccnc4cc(Cl)ccc34)ccnc2c1 [Compound 9, N^1, N^7 -Bis(7-chloroquinolin-4-Yl)heptane-1,7-diamine] | active |  | either active or curative |
| Clc1ccc2c(NCCCCCCCCNc3ccnc4cc(Cl)ccc34)ccnc2c1 [Compound 10, N^1, N^8 -Bis(7-chloroquinolin-4-yl)octane-1,8diamine] | active |  | either active or curative |
| Clc1ccc2c(NCCCCCCCCCNc3ccnc4cc(Cl)ccc34)ccnc2c1 [Compound 11, N^1, N^9 -Bis(7-chloroquinolin-4-yl)nonane-1,9-diamine] | active |  | either active or curative |
